Source: EP0852225B1, “FIBRINOGEN RECEPTOR ANTAGONISTS AND MEDICINAL PREPARATIONS CONTAINING THE SAME AS THE ACTIVE INGREDIENT” (NIPPON STEEL CORPORATION, priority 1996, dated 1997)
The name of at least one read-out is uncertain.

Assay: Oral administration test: time course of the concentration in plasma after oral administration
Assay type: in vivo
Settings: male SD rats, 10 mg per kg
Method: Male SD rats which had been starved from the previous day were used in this experiment. Two test substances, the compounds of Example 4 and Comparative Example 1, were dissolved in distilled water and administered into the stomach of rats with an oral probe. Each compound was administered to each rat in an amount of 10 mg per kg of body weight. Blood samples were collected 30, 60 and 120 minutes after the administration. The concentration of each compound which was in an active state (i.e., free carboxylic acid) in plasma was determined by HPLC.
In this Figure, the horizontal axis represents the time after the oral administration and the vertical axis represents the concentration of the active form of each compound in plasma. Each point represents the mean value for three rats and the standard error. […] When the peak values at 30 minutes after the oral administration are compared, the difference was about 10 times as great.

CCC(NC(=O)c1ccc(C(=N)N2CCOCC2)cc1F)C(C)(C)C(=O)N1CCC(CC(=O)O)CC1 (stereo not drawn) [Example 4, N-{N-(4-(4-morpholinoimidoyl)-2-fluorobenzoyl)-β-ethyl-α,α-dimethyl-β-alanyl)-4-piperidineacetic acid]
bioavailability compared with Comparative Example 1: clearly has a higher bioavailability than the compound of Comparative Example 1
